Assay results published in patent US6432702.
Results are given in words; binding and its absence hold for the method and conditions named. Some entries that bind do so weakly or less than the wild type. One block for each binder: values may come before it.

The chains behind the UniProt entries cited, without tags or fusion partners. Residues count along the entry.
UniProt P16092, residues 22-822: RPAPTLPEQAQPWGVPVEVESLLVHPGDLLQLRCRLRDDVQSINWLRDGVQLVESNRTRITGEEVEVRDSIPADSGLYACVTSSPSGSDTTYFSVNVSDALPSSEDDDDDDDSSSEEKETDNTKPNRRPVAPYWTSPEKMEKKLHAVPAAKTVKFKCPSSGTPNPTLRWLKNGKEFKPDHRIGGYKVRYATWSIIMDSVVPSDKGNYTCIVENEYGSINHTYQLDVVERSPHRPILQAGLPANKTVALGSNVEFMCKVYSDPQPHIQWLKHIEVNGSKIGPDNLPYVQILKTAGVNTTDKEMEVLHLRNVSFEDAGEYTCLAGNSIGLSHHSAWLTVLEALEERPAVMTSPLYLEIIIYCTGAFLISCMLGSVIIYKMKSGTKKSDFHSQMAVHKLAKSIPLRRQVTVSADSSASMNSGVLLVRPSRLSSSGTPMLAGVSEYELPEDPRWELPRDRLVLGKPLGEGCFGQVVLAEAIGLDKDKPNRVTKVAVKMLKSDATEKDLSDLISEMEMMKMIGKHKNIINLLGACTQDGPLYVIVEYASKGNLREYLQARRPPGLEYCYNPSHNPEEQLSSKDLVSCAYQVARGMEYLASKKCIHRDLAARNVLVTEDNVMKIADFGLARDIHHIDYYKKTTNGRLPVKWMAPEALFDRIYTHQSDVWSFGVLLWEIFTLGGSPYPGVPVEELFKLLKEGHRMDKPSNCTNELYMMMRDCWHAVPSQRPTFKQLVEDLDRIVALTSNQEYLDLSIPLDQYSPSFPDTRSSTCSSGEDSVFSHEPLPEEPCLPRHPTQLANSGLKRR
UniProt P21803, residues 22-821: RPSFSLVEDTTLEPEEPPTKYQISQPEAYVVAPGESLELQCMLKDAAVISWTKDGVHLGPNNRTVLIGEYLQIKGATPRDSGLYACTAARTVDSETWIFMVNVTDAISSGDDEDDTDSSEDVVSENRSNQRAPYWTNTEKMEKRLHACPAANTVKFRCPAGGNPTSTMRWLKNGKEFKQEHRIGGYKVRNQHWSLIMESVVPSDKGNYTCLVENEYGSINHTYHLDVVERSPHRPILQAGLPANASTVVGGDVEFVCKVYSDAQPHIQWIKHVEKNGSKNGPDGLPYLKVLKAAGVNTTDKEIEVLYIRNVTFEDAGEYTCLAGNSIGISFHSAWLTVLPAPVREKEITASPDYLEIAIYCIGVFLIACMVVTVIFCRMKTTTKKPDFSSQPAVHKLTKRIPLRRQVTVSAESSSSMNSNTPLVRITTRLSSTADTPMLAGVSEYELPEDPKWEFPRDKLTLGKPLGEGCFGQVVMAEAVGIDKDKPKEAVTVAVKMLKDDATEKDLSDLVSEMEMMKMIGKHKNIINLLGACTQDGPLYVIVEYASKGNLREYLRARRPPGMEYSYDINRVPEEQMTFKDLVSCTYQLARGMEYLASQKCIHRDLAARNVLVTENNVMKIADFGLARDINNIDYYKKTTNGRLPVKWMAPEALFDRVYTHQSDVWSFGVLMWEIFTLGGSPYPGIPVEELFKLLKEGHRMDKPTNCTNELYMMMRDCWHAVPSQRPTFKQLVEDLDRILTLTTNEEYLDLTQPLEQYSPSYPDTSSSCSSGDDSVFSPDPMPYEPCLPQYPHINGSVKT

What was measured:
FGF receptor-1 (flg) [1] = molecular target: FGF receptor-1 (flg) (UniProt P16092); experiment: competition with 125I-bFGF on CHO 4-1 cells expressing FGF receptor-1
FGF receptor-1 (flg) [2] = molecular target: FGF receptor-1 (flg) (UniProt P16092); experiment: cross-competition with iodinated K-FGF and K-FGF-140 on CHO 4-1 cells
FGF receptor-2 (bek) [3] = molecular target: FGF receptor-2 (bek) (UniProt P21803); experiment: cross-competition with iodinated K-FGF and K-FGF-140 on CHO 3-7.5 cells
FGF receptor-2 (bek) [4] = molecular target: FGF receptor-2 (bek) (UniProt P21803); experiment: competition with 125I-bFGF on CHO 3-7.5 cells expressing FGF receptor-2

binding (FGF receptor-1 (flg) [1]): binds | binding (FGF receptor-1 (flg) [2]): binds | binding (FGF receptor-2 (bek) [3]): binds
B1: K-FGF-140 (truncated K-FGF) (ligand)
chain: AAVQSGAGDYLLGIKRLRRLYCNVGIGFHLQALPDGRIGGAHADTRDSLLELSPVERGVVSIFGVASRFFVAMSSKGKLYGSPFFTDECTFKEILLPNNYNAYESYKYPGMFIALSKNGKTKKGNRVSPTMKVTHFLPRL

binding (FGF receptor-1 (flg) [2]): binds | binding (FGF receptor-2 (bek) [4]): binds | binding (FGF receptor-2 (bek) [3]): binds
B2: K-FGF (full-length mature human growth factor) (ligand)
chain: APTAPNGTLEAELERRWESLVALSLARLPVAAQPKEAAVQSGAGDYLLGIKRLRRLYCNVGIGFHLQALPDGRIGGAHADTRDSLLELSPVERGVVSIFGVASRFFVAMSSKGKLYGSPFFTDECTFKEILLPNNYNAYESYKYPGMFIALSKNGKTKKGNRVSPTMKVTHFLPRL
